Reference: PMC6925144, “A prospective compound screening contest identified broader inhibitors for Sirtuin 1” (Scientific Reports, 2019)
The full ranking holds about 3,200 compounds; the median of “TSA(with NAD+) / Primary screening (TSA) / delta Tm (K)” is about -0.04, and the highest 2% start at about 0.37. Some of the results follow.

The chains behind the UniProt entries cited, without tags or fusion partners. Residues count along the entry.
UniProt Q96EB6, 2-747 limits assumed: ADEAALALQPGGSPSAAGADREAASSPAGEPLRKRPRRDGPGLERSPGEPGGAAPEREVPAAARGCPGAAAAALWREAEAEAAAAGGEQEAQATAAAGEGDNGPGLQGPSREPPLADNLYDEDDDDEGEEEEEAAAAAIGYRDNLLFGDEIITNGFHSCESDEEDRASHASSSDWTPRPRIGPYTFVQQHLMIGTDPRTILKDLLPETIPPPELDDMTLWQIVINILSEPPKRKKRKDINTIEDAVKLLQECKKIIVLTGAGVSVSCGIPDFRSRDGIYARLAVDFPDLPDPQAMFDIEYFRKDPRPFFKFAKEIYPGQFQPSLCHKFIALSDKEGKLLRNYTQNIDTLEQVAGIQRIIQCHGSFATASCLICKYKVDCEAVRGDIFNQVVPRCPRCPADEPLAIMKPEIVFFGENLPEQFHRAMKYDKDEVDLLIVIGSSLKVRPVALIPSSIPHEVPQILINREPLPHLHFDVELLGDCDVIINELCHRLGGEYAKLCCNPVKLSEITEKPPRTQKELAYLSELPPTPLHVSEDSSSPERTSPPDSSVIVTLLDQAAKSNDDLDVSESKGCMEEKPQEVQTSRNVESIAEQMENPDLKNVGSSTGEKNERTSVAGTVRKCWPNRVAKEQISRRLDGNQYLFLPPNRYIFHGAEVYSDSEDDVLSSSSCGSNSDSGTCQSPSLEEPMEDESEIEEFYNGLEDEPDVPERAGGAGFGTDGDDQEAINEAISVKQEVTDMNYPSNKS

molecular target: NAD-dependent deacetylase Sirtuin 1 (human, UniProt Q96EB6); assay: primary screen, delta tm; design: single well (n = 1, as 'the same TSA'); settings: 10 µM

| SMILES | TSA(with NAD+) / Primary screening (TSA) / delta Tm (K) |
| --- | --- |
| NC(=O)CC1CCN(c2ncnc3cc(Cl)ccc23)CC1 | -0.11 K |
| COC(=O)CC(C)(NC(=O)Nc1ccc(SC(C)(C)C)cc1C)c1ccncc1 (stereo not shown) | -0.22 K |
| COc1ccc(S(=O)(=O)N2CCc3ccccc32)cc1C(=O)NCC12CC3CC(CC(C3)C1)C2 | 0.09 K |
| CC(CS(C)=O)C(=O)O (stereo not shown) | -0.06 K |
| O=C(O)CC(O)C(=O)O (stereo not shown) | 0.02 K |
| O=[N+]([O-])c1ccc(CSc2nc3ccccc3c3nc(CCc4c[nH]c5ccccc45)nn23)cc1 | 0.17 K |
| CN(C)C(=O)c1ccc(F)cc1Br | -0.09 K |
| Cn1cc(S(=O)(=O)N2CCN(C(=O)CCNC(=O)c3ccsc3)CC2)cc1C(N)=O | -0.02 K |
| Cc1cocc1CCCO | -0.13 K |
| Cc1cccc(NC(=O)CCNC(=O)C2=CCCCCC2)n1 | -0.05 K |
| Cc1nc2cc(C(=O)O)ccc2[nH]1 | -0.22 K |
| CN(c1cccc(Cl)c1)S(=O)(=O)c1cccc(C(=O)N2CCc3[nH]c4ccccc4c3C2)c1 | 0.11 K |
| O=C(Nc1ccc(F)cc1F)C(F)C(F)(F)F (stereo not shown) | -0.23 K |
| O=C(Cc1csc(-c2ccco2)n1)N(C/C=C/c1ccccc1)c1ccc2c(c1)OCCO2 | -0.06 K |
| Cc1ccc(-c2nnc(SCC(=O)NC(C)C(C)C)n2N)cc1 (stereo not shown) | -0.01 K |
| CC(C)(N)CCCN | -0.26 K |
| C=CCOc1cccc(C2C(C(=O)c3cccs3)=C(O)C(=O)N2CCCN2CCOCC2)c1 (stereo not shown) | 0.17 K |
| O=c1[nH]c(=O)c2cc(S(=O)(=O)N3CCc4ccccc4C3Cc3ccccc3)ccc2[nH]1 (stereo not shown) | 0.08 K |
| CN(c1ccc(C(N)=O)cc1)S(=O)(=O)c1ccc(F)c(C(F)(F)F)c1 | -0.01 K |
| CN(C)C(CNC(=O)C1CCCc2ccccc21)c1ccccc1 (stereo not shown) | -0.03 K |
| CCCNC(=O)c1ccc2[nH]c(C)c(C)c2c1 | 0.05 K |
| COc1ccc(CCNCc2ccc(OCc3ccccc3)cc2)cc1 | -0.13 K |
| CCCOc1ccc(C(=O)C2=C(O)C(=O)N(CCCN3CCOCC3)C2c2ccc(C)o2)cc1 (stereo not shown) | -0.03 K |
| CCCCCOc1ccc(C(=O)CCC(=O)OCC(=O)Nc2cccc(S(=O)(=O)/N=C3/CCCCCN3)c2)cc1 | 0.06 K |
| NC(=O)C1CCN(C(=O)c2c[nH]c3ccc(Br)cc23)CC1 | -0.05 K |

Quoted at random: 3 entries already listed

| SMILES | TSA(with NAD+) / Primary screening (TSA) / delta Tm (K) |
| --- | --- |
| Cc1cocc1CCCO | -0.13 K |
| O=c1[nH]c(=O)c2cc(S(=O)(=O)N3CCc4ccccc4C3Cc3ccccc3)ccc2[nH]1 (stereo not shown) | 0.08 K |
| CC(CS(C)=O)C(=O)O (stereo not shown) | -0.06 K |

Further records follow.

| SMILES | TSA(with NAD+) / Primary screening (TSA) / delta Tm (K) |
| --- | --- |
| O=C(Cc1cccc2ccccc12)Nc1ccccc1Cc1ccccc1 | 0.07 K |
| CCONC(=O)c1cccc(I)c1 | -0.08 K |
| COc1ccc(CCn2c(C)cc(C(=O)COC(=O)C34CC5CC(CC(O)(C5)C3)C4)c2C)cc1 | -0.19 K |
| CCOCc1cn(CC(=O)c2ccc(OC)cc2)c(C)nc1=N | -0.08 K |
| CCOc1ccc(Oc2ccc(NS(=O)(=O)c3cc(C(=O)O)ccc3Cl)cc2)cc1 | -0.08 K |
| Cn1ccc(NC(=O)CSc2ccc3c4c(cccc24)C(=O)c2ccccc2-3)n1 | 0.02 K |
| Cc1cc(C(=O)NCc2nnc3ccccn23)c(C)n1-c1ccccc1 | -0.02 K |
| O=C(CSC1CCS(=O)(=O)C1)Nc1nnc(SCc2c(Cl)cccc2Cl)s1 (stereo not shown) | -0.18 K |
| CCC(C)C(C)N (stereo not shown) | -0.06 K |
| Cc1ccc(-c2noc(C(C)N3CCN(c4nc(C(F)(F)F)nc5ccccc45)CC3)n2)cc1 (stereo not shown) | 0.15 K |
| O=C1CN(c2ncc(Br)cn2)C2CCCCC2N1 (stereo not shown) | 0.13 K |
| CC(=O)N(c1ccc(C)c(C)c1)c1nc(/C=C(/CC(=O)O)c2nc3ccccc3s2)cs1 | 0.06 K |
| NC(=O)Cc1ccc(NC(=O)c2cc(Br)ccc2Cl)cc1 | 0.06 K |
| CCCc1nnn[nH]1 | -0.02 K |
| CC1CCC(C(N)=O)CN1Cc1nc2c(F)cccc2[nH]1 (stereo not shown) | -0.01 K |
| CC([NH3+])C(C)[NH3+] (stereo not shown) | -0.06 K |
| O=C1c2cccc3cccc(c23)N1Cc1cc(-c2cccs2)on1 | -0.01 K |
| COc1cc(/C=C(/C#N)C(=O)NCCc2cnn(-c3ccccc3)c2)ccc1O | -0.01 K |
| CN(c1ccc2ccccc2n1)S(=O)(=O)c1cc(C(N)=O)n(C)c1 | 0.06 K |
| O=C(O)c1ccc2[nH]c(C(F)(F)F)nc2c1 | -0.14 K |
| C=CCN(C(=O)CCCc1nc(C(C)(C)C)no1)c1nc2c(s1)CCCC2 | -0.22 K |
| CC(SCC(O)CO)c1nc2ccccc2c(=O)[nH]1 (stereo not shown) | -0.06 K |
| CC1CC1c1ccc(/C=C/C(=O)Nc2cc(C(N)=O)ccc2N2CCCC2)o1 (stereo not shown) | -0.12 K |
| Cc1nc(N2CCN(Cc3nc(-c4ccccc4)no3)CC2)c2c3c(sc2n1)CC(C)CC3 (stereo not shown) | 0.09 K |
